# The other results are listed elsewhere or left out.
# B1: MIC2 (Toxoplasma gondii), S8F9G8 (protein)
# chain: MRLQREAVFGLMFACGMWMWPSEVAGGGWSIVDALRKRYDTSRGGDANGVDTSGVEDVIQSESAIGAAEGCTNQLDICFLIDSSGSIGIQNFRLVKQFLHTFLMVLPIGPEEVNNAVVTYSTDVHLQWDLQSPNAVDKQLAAHAVLDMPYKKGSTNTSDGLKACKQILFTGSRPGREHVPKLVIGMTDGESDSDFRTVRAAKEIRELGGIVTVLAVGHYVKHSECRSMCGCSGTSDDDSPCPLYLRADWGQLATAIKPMLKEVCKTLPQDAICSDWSAWSPCSVSCGDGSQIRTRTEVSAPQPGTPTCPDCPAPMGRTCVEQGGLEEIRECSAGVCAVDAGCGVWGEWSAWSASCGNATRKRERTRYNDPPPQGAGRRCENQDPPVLQEQTEEATLAPCITIPPTPPEWAAWSDCTVTCGGGNRHRVRNALPPGLGSQNGESDESLVSKLWPGTDLRQEEACNTSPCPINATCGQFEEWSTCSVSCGGGLKTRSRNPWNEDQQHGGLSCEQQHPGGRTETITCNPQACPVDERPGEWAEWGECSVTCGDGVRERRRGKSLVEAKFGGRTIDQQNEALPEDLKIKNVEYEPCSYPACGASCTYVWSDWNKCVCPMGYQARHAAVKFDYRNKPCDLPTFETKACSCGETNPVPSEGTTPGAPGATGPEQPNQRPLPEGSDENETPTNEEGEQSKKESGSGIAGAIAGGVIGGLILLGAAGGASYHYYLSSSVGSPSAEIEYEADDGATKVVMEEEKETLVPVDDDSDMWME
# What was measured:
# Experiment in all cases: glycan array binding signal (z-score within array); higher = stronger binding
# Conditions in all cases: glycan notation: IUPAC condensed, linker removed
# [1] = molecular target: Neu5Ac(a2-3)Gal6S(b1-4)[Fuc(a1-3)]GlcNAc
# Method in brief: (§1)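 Columns mapping to the same glycan were averaged after glycan names were converted to IUPAC-condensed notation. The data come from 3228 arrays in the Consortium for Functional Glycomics database, limited to those with an available protein sequence. Binding is reported as a within-array Z-score averaged across arrays of one protein sequence and across linkers.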
# Neu5Ac(a2-3)GalNAc = molecular target: Neu5Ac(a2-3)GalNAc
# Method in brief: as §1
# [2] = molecular target: Neu5Ac(a2-3)GalNAc(b1-4)GlcNAc
# Method in brief: as §1
# [3] = molecular target: Neu5Ac(a2-3)[GalNAc(b1-4)]Gal(b1-4)Glc
# Method in brief: as §1
# [4] = molecular target: Neu5Ac(a2-3)[GalNAc(b1-4)]Gal(b1-4)GlcNAc
# Method in brief: as §1
# [5] = molecular target: Neu5Ac(a2-3)[GalNAc(b1-4)]Gal(b1-4)GlcNAc(b1-3)GalNAc
# Method in brief: as §1
# [6] = molecular target: Neu5Ac(a2-3)[Neu5Ac(a2-6)]GalNAc
# Method in brief: as §1
# Neu5Ac(a2-6)Gal = molecular target: Neu5Ac(a2-6)Gal
# Method in brief: as §1
# Neu5Ac(a2-6)Gal(b1-4)Glc = molecular target: Neu5Ac(a2-6)Gal(b1-4)Glc
# Method in brief: as §1
# [7] = molecular target: Neu5Ac(a2-6)Gal(b1-4)GlcNAc
# Method in brief: as §1
# [8] = molecular target: Neu5Ac(a2-6)Gal(b1-4)GlcNAc(b1-2)Man(a1-3)Man(b1-4)GlcNAc(b1-4)GlcNAc
# Method in brief: as §1
# [9] = molecular target: Neu5Ac(a2-6)Gal(b1-4)GlcNAc(b1-2)Man(a1-3)[Gal(b1-4)GlcNAc(b1-2)Man(a1-6)]Man(b1-4)GlcNAc(b1-4)GlcNAc
# Method in brief: as §1
# [10] = molecular target: Neu5Ac(a2-6)Gal(b1-4)GlcNAc(b1-2)Man(a1-3)[GlcNAc(b1-2)Man(a1-6)]Man(b1-4)GlcNAc(b1-4)GlcNAc
# Method in brief: as §1
# [11] = molecular target: Neu5Ac(a2-6)Gal(b1-4)GlcNAc(b1-2)Man(a1-3)[GlcNAc(b1-2)Man(b1-4)GlcNAc(b1-2)Man(a1-6)]Man(b1-4)GlcNAc(b1-4)GlcNAc
# Method in brief: as §1
# [12] = molecular target: Neu5Ac(a2-6)Gal(b1-4)GlcNAc(b1-2)Man(a1-3)[Man(a1-6)]Man(b1-4)GlcNAc(b1-4)GlcNAc
# Method in brief: as §1
# [13] = molecular target: Neu5Ac(a2-6)Gal(b1-4)GlcNAc(b1-2)Man(a1-3)[Neu5Ac(a2-6)Gal(b1-4)GlcNAc(b1-2)Man(a1-6)]Man(b1-4)GlcNAc(b1-4)GlcNAc
# Method in brief: as §1
# [14] = molecular target: Neu5Ac(a2-6)Gal(b1-4)GlcNAc(b1-2)Man(a1-6)Man(b1-4)GlcNAc(b1-4)GlcNAc
# Method in brief: as §1
# [15] = molecular target: Neu5Ac(a2-6)Gal(b1-4)GlcNAc(b1-2)Man(a1-6)[Gal(b1-4)GlcNAc(b1-2)Man(a1-3)]Man(b1-4)GlcNAc(b1-4)GlcNAc
# Method in brief: as §1
# [16] = molecular target: Neu5Ac(a2-6)Gal(b1-4)GlcNAc(b1-2)Man(a1-6)[GlcNAc(b1-2)Man(a1-3)]Man(b1-4)GlcNAc(b1-4)GlcNAc
# Method in brief: as §1
# [17] = molecular target: Neu5Ac(a2-6)Gal(b1-4)GlcNAc(b1-2)Man(a1-6)[Man(a1-3)]Man(b1-4)GlcNAc(b1-4)GlcNAc
# Method in brief: as §1
# [18] = molecular target: Neu5Ac(a2-6)Gal(b1-4)GlcNAc(b1-3)Gal(b1-3)GlcNAc
# Method in brief: as §1
# [19] = molecular target: Neu5Ac(a2-6)Gal(b1-4)GlcNAc(b1-3)Gal(b1-4)GlcNAc
# Method in brief: as §1
# [20] = molecular target: Neu5Ac(a2-6)Gal(b1-4)GlcNAc(b1-3)Gal(b1-4)GlcNAc(b1-3)Gal(b1-4)GlcNAc
# Method in brief: as §1
# [21] = molecular target: Neu5Ac(a2-6)Gal(b1-4)GlcNAc(b1-3)Gal(b1-4)[Fuc(a1-3)]GlcNAc(b1-3)Gal(b1-4)[Fuc(a1-3)]GlcNAc
# Method in brief: as §1
# [22] = molecular target: Neu5Ac(a2-6)Gal(b1-4)GlcNAc(b1-3)GalNAc
# Method in brief: as §1
# [23] = molecular target: Neu5Ac(a2-6)Gal(b1-4)GlcNAc6S
# Method in brief: as §1
# Neu5Ac(a2-6)GalNAc = molecular target: Neu5Ac(a2-6)GalNAc
# Method in brief: as §1
# [24] = molecular target: Neu5Ac(a2-6)GalNAc(b1-4)GlcNAc
# Method in brief: as §1
# [25] = molecular target: Neu5Ac(a2-6)GlcNAc(b1-4)GlcNAc
# Method in brief: as §1
# [26] = molecular target: Neu5Ac(a2-6)GlcNAc(b1-4)GlcNAc(b1-4)GlcNAc
# Method in brief: as §1
binder,measurement,setting,value
B1,glycan array binding signal (z-score),[1],0.272
same,glycan array binding signal (z-score),Neu5Ac(a2-3)GalNAc,-0.716
same,glycan array binding signal (z-score),[2],-0.701
same,glycan array binding signal (z-score),[3],0.279
same,glycan array binding signal (z-score),[4],0.446
same,glycan array binding signal (z-score),[5],1.93
same,glycan array binding signal (z-score),[6],0.06
same,glycan array binding signal (z-score),Neu5Ac(a2-6)Gal,-0.435
same,glycan array binding signal (z-score),Neu5Ac(a2-6)Gal(b1-4)Glc,0.18
same,glycan array binding signal (z-score),[7],-0.177
same,glycan array binding signal (z-score),[8],-0.421
same,glycan array binding signal (z-score),[9],-0.759
same,glycan array binding signal (z-score),[10],-0.512
same,glycan array binding signal (z-score),[11],0.41
same,glycan array binding signal (z-score),[12],0.135
same,glycan array binding signal (z-score),[13],-0.649
same,glycan array binding signal (z-score),[14],-0.954
same,glycan array binding signal (z-score),[15],-0.929
same,glycan array binding signal (z-score),[16],-0.334
same,glycan array binding signal (z-score),[17],1.09
same,glycan array binding signal (z-score),[18],1.03
same,glycan array binding signal (z-score),[19],-0.391
same,glycan array binding signal (z-score),[20],0.566
same,glycan array binding signal (z-score),[21],-0.269
same,glycan array binding signal (z-score),[22],0.606
same,glycan array binding signal (z-score),[23],-0.507
same,glycan array binding signal (z-score),Neu5Ac(a2-6)GalNAc,-0.929
same,glycan array binding signal (z-score),[24],-0.706
same,glycan array binding signal (z-score),[25],0.029
same,glycan array binding signal (z-score),[26],0.451

# Some of the entries above, set out differently.
binder	measurement	setting	value
B1	glycan array binding signal (z-score)	[10]	-0.512
same	glycan array binding signal (z-score)	[11]	0.41

# — the supplement of paper PMC8728848
